This is an account of results in the supplement of paper PMC4604168 (melanoma cell lines).

The other results are listed elsewhere or left out. Repeats are few or missing, and single values can be far off.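 The apoptosis fraction was the count of cleaved-PARP antibody-stained nuclei relative to all DNA-stained nuclei, imaged in 1,536-well plates. Screening doses were set so most cells survived, and baseline and induced cleaved-PARP levels vary greatly across cell lines.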

One assay deals with SkMel30. As to the kind of experiment: cleaved PARP positive nuclei fraction relative to DMSO control; melanoma cells; higher = more apoptosis. Particulars: library dose: low library concentration; 72 h.
Turning to `CC(C)C[C@H](NC(=O)[C@H](Cc1ccccc1)NC(=O)c1cnccn1)B(O)O` [Bortezomib] + COc1cc2ncnc(Nc3ccc(Oc4ccccc4)cc3)c2cc1OC [SrcI1] (first compound 0.001 µM, partner dose 2 µM), the “cleaved PARP positive nuclei fraction” value worked out at 33.6%.

In the case of `CC(C)C[C@H](NC(=O)[C@H](Cc1ccccc1)NC(=O)c1cnccn1)B(O)O` [Bortezomib] + C[C@@H]1CCN(C(=O)CC#N)C[C@@H]1N(C)c1ncnc2[nH]ccc12 [CP690550] (first compound 0.001 µM, partner dose 1 µM), the “cleaved PARP positive nuclei fraction” value is 73.7%.

Consider `CNC(=O)c1cc(Oc2ccc(NC(=O)Nc3ccc(Cl)c(C(F)(F)F)c3)cc2)ccn1` [sorafenib] + c1cc(-c2cnn3cc(-c4ccc(OCCN5CCCCC5)cc4)cnc23)ccn1 [Dorsomorphin] (first compound 0.4 µM, partner dose 0.4 µM), for which the “cleaved PARP positive nuclei fraction” value is 58.1%.

As for `O=C(O)c1ccc2c(c1)nc(Nc1cccc(Cl)c1)c1ccncc12` + O=C(Nc1cccc(Cl)c1)Nc1ncc(CCNc2ncnc3ccsc23)s1 [SNS314] (first compound 0.4 µM, partner dose 0.0008 µM), the “cleaved PARP positive nuclei fraction” value was determined as 125%.

For `CCCS(=O)(=O)Nc1ccc(F)c(C(=O)c2c[nH]c3ncc(Cl)cc23)c1F` + CCc1ccc(CCOc2ccc(CC3SC(=O)NC3=O)cc2)nc1 [pioglitazone] (first compound 0.08 µM, partner dose 2 µM), the “cleaved PARP positive nuclei fraction” value was found to be 42.2%.

For the compound `O=C(O)c1ccc2c(c1)nc(Nc1cccc(Cl)c1)c1ccncc12` + CC(C)(C)c1cnc(CSc2cnc(NC(=O)C3CCNCC3)s2)o1 [SNS-032] (first compound 0.4 µM, partner dose 0.01 µM), the “cleaved PARP positive nuclei fraction” value was found to be 60.6%.

With `CN1CCN(c2ccc3nc(-c4c(N)c5c(F)cccc5[nH]c4=O)[nH]c3c2)CC1` [Dovitinib] + NC(=O)Nc1cc(-c2cccc(F)c2)sc1C(=O)N[C@H]1CCCNC1 [AZD7762] (first compound 0.1 µM, partner dose 0.02 µM), the “cleaved PARP positive nuclei fraction” value turned out to be 64.9%.

`O=C(O)[C@@H]1[O][Sb](=[O])([O][Sb]2(=[O])[O][C@H]([C@H](O)CO)[C@H](O)[C@H](C(=O)O)[O]2)[O][C@H]([C@H](O)CO)[C@@H]1O` (stereo partly specified) [stibogluconate] + OCCn1cc(-c2cnc3nnn(Cc4ccc5ncccc5c4)c3n2)cn1 [PF04217903] (first compound 2 µM, partner dose 1 µM): the “cleaved PARP positive nuclei fraction” value came out at 66.8%.

For `CS(=O)(=O)CCNCc1ccc(-c2ccc3ncnc(Nc4ccc(OCc5cccc(F)c5)c(Cl)c4)c3c2)o1` [lapatinib] + COc1ccc(COc2ccc(Cc3cnc(N)nc3N)cc2OC)cc1 [GW2580] (first compound 0.8 µM, partner dose 1 µM), the “cleaved PARP positive nuclei fraction” value was 89.1%.

The next assay concerns SkMel5. The assay is described as above. Particulars: library dose: low library concentration; 72 h.
On to `C=C(c1ccc(C(=O)O)cc1)c1cc2c(cc1C)C(C)(C)CCC2(C)C` [Bexarotene] + CC(C)(C)c1cnc(CSc2cnc(NC(=O)C3CCNCC3)s2)o1 [SNS-032] (first compound 2 µM, partner dose 0.01 µM), for which the “cleaved PARP positive nuclei fraction” value amounted to 78.1%.

For `Cc1cc(Nc2cc(N3CCN(C)CC3)nc(/C=C/c3ccccc3)n2)n[nH]1` + COc1cc(N2CCC(N3CCN(C)CC3)CC2)ccc1Nc1ncc(Cl)c(Nc2ccccc2S(=O)(=O)C(C)C)n1 [NVP-TAE684] (first compound 0.04 µM, partner dose 0.08 µM), the “cleaved PARP positive nuclei fraction” value was 188%.

`O=C(O)c1ccc2c(c1)nc(Nc1cccc(Cl)c1)c1ccncc12` + Oc1nc(-c2ccc(C(F)(F)F)cc2)nc2c1CSCC2 [XAV939] (first compound 0.4 µM, partner dose 2 µM): the “cleaved PARP positive nuclei fraction” value turned out to be 96.3%.

For the compound `Nc1ccn([C@@H]2O[C@H](CO)[C@@H](O)C2(F)F)c(=O)n1` [gemcitabine] + COC(=O)c1sccc1S(=O)(=O)Nc1ccc(Nc2ccccc2)cc1OC [GSK0660] (first compound 0.0004 µM, partner dose 1 µM), the “cleaved PARP positive nuclei fraction” value came to 75.5%.

Regarding `CNC(=O)c1cc(Oc2ccc(NC(=O)Nc3ccc(Cl)c(C(F)(F)F)c3)cc2)ccn1` [sorafenib] + CC(C)(C)c1cnc(CSc2cnc(NC(=O)C3CCNCC3)s2)o1 [SNS-032] (first compound 0.4 µM, partner dose 0.01 µM), the “cleaved PARP positive nuclei fraction” value is 89.1%.

Consider `Nc1ccn([C@@H]2O[C@H](CO)[C@@H](O)C2(F)F)c(=O)n1` [gemcitabine] + OCCn1cc(-c2cnc3nnn(Cc4ccc5ncccc5c4)c3n2)cn1 [PF04217903] (first compound 0.0004 µM, partner dose 1 µM), for which the “cleaved PARP positive nuclei fraction” value turned out to be 43.5%.

With `C=C(c1ccc(C(=O)O)cc1)c1cc2c(cc1C)C(C)(C)CCC2(C)C` [Bexarotene] + Cc1ccc(NC(=O)c2cccc(N(C)C)c2)cc1NC(=O)c1ccc(O)cc1 [ZM336372] (first compound 2 µM, partner dose 2 µM), the “cleaved PARP positive nuclei fraction” value is 169%.

On to `Nc1nc(F)nc2c1ncn2[C@@H]1O[C@H](CO)[C@@H](O)[C@@H]1O` [fludarabine] + C=CCn1c(=O)c2cnc(Nc3ccc(N4CCN(C)CC4)cc3)nc2n1-c1cccc(C(C)(C)O)n1 [MK1775] (first compound 0.2 µM, partner dose 0.02 µM), for which the “cleaved PARP positive nuclei fraction” value amounted to 1420%.

Regarding `Cc1cc(Nc2cc(N3CCN(C)CC3)nc(/C=C/c3ccccc3)n2)n[nH]1` + Cn1cc(/C=C2\C(=O)Nc3cccnc32)c2ccccc21 [GW441756] (first compound 0.04 µM, partner dose 0.4 µM), the “cleaved PARP positive nuclei fraction” value worked out at 183%.

For the compound `CC(C)C[C@H](NC(=O)[C@H](Cc1ccccc1)NC(=O)c1cnccn1)B(O)O` [Bortezomib] + c1cc(-c2cnn3cc(-c4ccc(OCCN5CCCCC5)cc4)cnc23)ccn1 [Dorsomorphin] (first compound 0.001 µM, partner dose 0.4 µM), the “cleaved PARP positive nuclei fraction” value is 165%.

On to `Nc1ncn([C@H]2C[C@H](O)[C@@H](CO)O2)c(=O)n1` [decitabine] + Cc1cc([N+](=O)[O-])ccc1NS(=O)(=O)c1cc(Cl)ccc1Cl [FH535] (first compound 0.1 µM, partner dose 1 µM), for which the “cleaved PARP positive nuclei fraction” value came out at 90.2%.

Regarding `Nc1ncn([C@H]2C[C@H](O)[C@@H](CO)O2)c(=O)n1` [decitabine] + O=C(Nc1cccc(Cl)c1)Nc1ncc(CCNc2ncnc3ccsc23)s1 [SNS314] (first compound 0.1 µM, partner dose 0.0008 µM), the “cleaved PARP positive nuclei fraction” value worked out at 55.7%.

Consider `CS(=O)(=O)CCNCc1ccc(-c2ccc3ncnc(Nc4ccc(OCc5cccc(F)c5)c(Cl)c4)c3c2)o1` [lapatinib] + COc1ccc2c(c1)CCC1C2CCC2(C)C(NCCCCCCN3C(=O)C=CC3=O)CCC12 [U73122] (first compound 0.8 µM, partner dose 0.4 µM), for which the “cleaved PARP positive nuclei fraction” value was found to be 79.1%.

Consider `Cc1cc(Nc2cc(N3CCN(C)CC3)nc(/C=C/c3ccccc3)n2)n[nH]1` + CCCCCCCCCCCC1=C(O)C(=O)C=C(O)C1=O [Embelin] (first compound 0.04 µM, partner dose 1.2 µM), for which the “cleaved PARP positive nuclei fraction” value was determined as 34.4%.

For `C[C@@H](Oc1cc(-c2cnn(C3CCNCC3)c2)cnc1N)c1c(Cl)ccc(F)c1Cl` [Crizotinib] + Cc1cc([N+](=O)[O-])ccc1NS(=O)(=O)c1cc(Cl)ccc1Cl [FH535] (first compound 0.2 µM, partner dose 1 µM), the “cleaved PARP positive nuclei fraction” value was determined as 78.4%.

Take `Nc1ccn([C@@H]2O[C@H](CO)[C@@H](O)C2(F)F)c(=O)n1` [gemcitabine] + O=C(Nc1cccc(Cl)c1)Nc1ncc(CCNc2ncnc3ccsc23)s1 [SNS314] (first compound 0.0004 µM, partner dose 0.0008 µM): the “cleaved PARP positive nuclei fraction” value worked out at 32.1%.

On to `O=C(O)[C@@H]1[O][Sb](=[O])([O][Sb]2(=[O])[O][C@H]([C@H](O)CO)[C@H](O)[C@H](C(=O)O)[O]2)[O][C@H]([C@H](O)CO)[C@@H]1O` (stereo partly specified) [stibogluconate] + CC(C)CCN1c2nc(Nc3cc(F)c(O)c(F)c3)ncc2N(C)C(=O)C1C [BID1870] (first compound 2 µM, partner dose 0.2 µM), for which the “cleaved PARP positive nuclei fraction” value was determined as 70.5%.

For the compound `C=C(c1ccc(C(=O)O)cc1)c1cc2c(cc1C)C(C)(C)CCC2(C)C` [Bexarotene] + COc1ccc2c(c1)CCC1C2CCC2(C)C(NCCCCCCN3C(=O)C=CC3=O)CCC12 [U73122] (first compound 2 µM, partner dose 0.4 µM), the “cleaved PARP positive nuclei fraction” value stood at 163%.

`C=C(c1ccc(C(=O)O)cc1)c1cc2c(cc1C)C(C)(C)CCC2(C)C` [Bexarotene] + Oc1nc(-c2ccc(C(F)(F)F)cc2)nc2c1CSCC2 [XAV939] (first compound 2 µM, partner dose 2 µM): the “cleaved PARP positive nuclei fraction” value came out at 161%.

Consider `CS(=O)(=O)CCNCc1ccc(-c2ccc3ncnc(Nc4ccc(OCc5cccc(F)c5)c(Cl)c4)c3c2)o1` [lapatinib] + NC(=O)Nc1cc(-c2cccc(F)c2)sc1C(=O)N[C@H]1CCCNC1 [AZD7762] (first compound 0.8 µM, partner dose 0.02 µM), for which the “cleaved PARP positive nuclei fraction” value is 88.8%.

In the case of `O=C(O)[C@@H]1[O][Sb](=[O])([O][Sb]2(=[O])[O][C@H]([C@H](O)CO)[C@H](O)[C@H](C(=O)O)[O]2)[O][C@H]([C@H](O)CO)[C@@H]1O` (stereo partly specified) [stibogluconate] + CN(NC(=O)CC(=O)NN(C)C(=S)c1ccccc1)C(=S)c1ccccc1 [STA4783] (first compound 2 µM, partner dose 0.006 µM), the “cleaved PARP positive nuclei fraction” value is 84%.

For the compound `CCCS(=O)(=O)Nc1ccc(F)c(C(=O)c2c[nH]c3ncc(Cl)cc23)c1F` + COc1ccc(COc2ccc(Cc3cnc(N)nc3N)cc2OC)cc1 [GW2580] (first compound 0.08 µM, partner dose 1 µM), the “cleaved PARP positive nuclei fraction” value was found to be 69%.
